Source: PubChem BioAssay AID1347426 (Functional Genomics Laboratory (NCATS/FGL), 2020)
The campaign covered roughly 31,000 sequences. About 1,400 (4.5%) were called active.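 The calls were made as follows: active = median seed-adjusted z-score above 1 or below -1; inactive = the rest.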 The list shows a part of the results.

test: Novel Modifiers of Survival Motor Neuron (SMN) Protein: Gene Identification via Genome-wide siRNA Screen; conditions: HEK293T SMN2-luciferase reporter, siRNA knockdown, 72 h; actives lie on both sides;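 also: luminescence tracks full-length SMN protein made from the SMN2 reporter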
Procedure, shortened: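 Luciferase signal, proportional to full-length SMN made from an SMN2 cDNA reporter in stable HEK293T cells, was read 72 h after siRNA reverse transfection. Values were expressed as MAD scores after non-targeting-control normalization and log10 conversion; seed analysis flagged off-targets.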

Row | Sequence | median seed-adjusted z-score
1 | GAAGGAUGGUAUUCAGACUTT against GATA1 | inactive: 0.371
2 | GAUCGAUUUGGAGAACUUATT against IRX3 | inactive: -0.285
3 | GGACACUAGGAAAUCCUAATT against MMP16 | inactive: 0.144
4 | CGAGCAGGCUAUCAUCGAUTT against ANXA8L2 | inactive: -0.147
5 | GGACAAAAAGGUUGAAUUATT against PDIA5 | inactive: 0.989
6 | CGAAGUGAUUUGAUACCAATT against GINS1 | inactive: -0.224
7 | GAAGGAUGCAGAAACGUGATT against ITGB8 | inactive: -0.0936
8 | GCAUUUGCAAUGAAGGCUATT against DNER | inactive: -0.316
9 | UGCGCGAGAUGGUGGAAAATT against KCNG4 | inactive: 0.666
10 | AGAAGAAUCUGAUCAGUUUTT against AKR1CL2 | inactive: -0.949
11 | GGCCUUACCCUAAAUCGAATT against RARB | inactive: 0.409
12 | CCUCCAUGCGCAAGACUAATT against SLC2A8 | inactive: -0.105
13 | CAAUAAUGGUGUUCGAAUATT against LECT2 | inactive: 0.0371
14 | GAAACUGGACAGUAAGAAATT against HDAC4 | inactive: -0.0988
15 | CCAGAUUGAUCGUAAGAAATT against ARFGAP2 | inactive: 0.0672
16 | GCAAGAUCCGUGAGGAGUUTT against TUBB6 | inactive: 0.63
17 | GCGCAGCCUUUAGAGGAUATT against UBE2J1 | active: -1.2
18 | GGUAAUCUUUAUGAAGAGATT against GCM1 | inactive: 0.0197
19 | GGUUUUGACUCACCUGAAATT against PTK6 | inactive: -0.295
20 | GCAAGACAGUUCAAUAUGATT against KCNAB1 | inactive: 0.721
21 | AAGUGGUGAUCGAGUUUAATT against MYL6B | inactive: 0.11
22 | UCGUCCUCUUUAACCCUGATT against RXRA | inactive: 0.304

Some of the entries above, set out differently.
Row	Sequence	median seed-adjusted z-score
11	GGCCUUACCCUAAAUCGAATT against RARB	inactive: 0.409
13	CAAUAAUGGUGUUCGAAUATT against LECT2	inactive: 0.0371
15	CCAGAUUGAUCGUAAGAAATT against ARFGAP2	inactive: 0.0672
19	GGUUUUGACUCACCUGAAATT against PTK6	inactive: -0.295

From entry 18 up to 22, copied from above:
Row | Sequence | median seed-adjusted z-score
18 | GGUAAUCUUUAUGAAGAGATT against GCM1 | inactive: 0.0197
19 | GGUUUUGACUCACCUGAAATT against PTK6 | inactive: -0.295
20 | GCAAGACAGUUCAAUAUGATT against KCNAB1 | inactive: 0.721
21 | AAGUGGUGAUCGAGUUUAATT against MYL6B | inactive: 0.11
22 | UCGUCCUCUUUAACCCUGATT against RXRA | inactive: 0.304

(next part)

Row | Sequence | median seed-adjusted z-score
23 | GCUUCGACAUUGAAUACAATT against DSCAML1 | inactive: 0.237
24 | CAGUGAUCAUGGUAGACGATT against SLC24A3 | inactive: 0.0177
25 | AGAGAGUUAUGUUUACCGATT against CTSB | inactive: -0.31
26 | AGACACCCUUUGGACCACATT against ZFAND2A | inactive: 0
27 | CCUCAUCUAUCAUCAGAGATT against ZNF613 | inactive: -0.189
28 | CCUAUGAGUGGUACAAUAATT against ITK | inactive: -0.0372
29 | GAAGCUACAGAAUCUGGAATT against ARFGAP2 | inactive: 0.0672
30 | GCAUUUACACUGUAUAUUATT against POU4F2 | active: 1.46
31 | CAUUGACCGGAACCAAAAATT against CTNND1 | inactive: 0.38
32 | CGAAGUUCACUAUCGAACATT against DNAH11 | inactive: 0.104
33 | CGAUGCAAGUUCUCGAAGATT against PDSS1 | inactive: -0.287
34 | GCUUCAAUGAGUUCCAAGATT against TMPRSS9 | inactive: 0.106
35 | AAGGGACAAUGAUAGUAGATT against TAL1 | inactive: -0.165
36 | AGGCCUCAGUUACCACUAUTT against DPF2 | inactive: 0.373
37 | GAUCUAAGGAUGAAAUAGATT against RAD54L | inactive: -0.393
38 | CACUGACAAUGAUCAUGGATT against SNRK | inactive: 0.463
39 | GAAGGUUGUUUGCACAAGATT against TRAF6 | inactive: 0.324
40 | CGAUGAGCCUGGAACGGAATT against ACSS1 | inactive: 0.243
41 | ACCGCUACCUUUCUCUGUATT against GPR3 | inactive: 0
42 | GCAGUUAUUGGUACUAAUATT against MOAP1 | inactive: 0.0405
43 | GAACCGCUACAAGAACAUUTT against PTPN6 | inactive: -0.515
44 | GCGAGUGUGAGAAAACAUUTT against ZFP3 | inactive: 0

Row | Sequence | median seed-adjusted z-score
45 | GCCUAUUAUGGAGAAAAGATT against HES1 | inactive: -0.262
46 | CUUGGAAAUAGUCAGCAUATT against RARRES1 | inactive: -0.329
47 | GCUUACGGCUUGUACCUGATT against SFRS17A | inactive: -0.389
48 | CACGAAUACUUCUUCCUGATT against FADS2 | inactive: 0.0769
49 | GCAGCUGAGUUCAUCCGAATT against ZCRB1 | inactive: 0.265
50 | GUCUACCAGUUGACCCGAATT against SMAD3 | inactive: -0.715
51 | CCACUGUCCUGUUUGAGAUTT against FKBP6 | active: -1.12
52 | UCAUGACCGGGUCCUAUAATT against PPP2R2D | inactive: -0.118
53 | GCUUUAGAGAUAAGUCAAATT against PRDM9 | inactive: -0.15
54 | UAGUCAAACAGGCACAAUATT against HYAL2 | inactive: 0.056
55 | GAACUGCGCAUAAAAAGAATT against CASP5 | inactive: 0.655
56 | GAAUUGGGAACACUAGUUATT against ATP8B4 | inactive: -0.00244
57 | CGAAAGAUUUAUGAGAUUUTT against TRAPPC4 | inactive: 0
58 | GCCUCACGUUUGUCAGUAUTT against WNK3 | inactive: -0.466
59 | CGAGUGAAGUGGGAUGAGATT against STARD5 | inactive: -0.0333
60 | GAAGCGCAGAUCAAAAGGATT against LIN28 | inactive: -0.348
61 | GGCUGUUGACUGUACUACATT against KCTD3 | inactive: 0.603
62 | GAAGUUUGACCAUGACUUUTT against ACCN5 | inactive: 0.227
63 | CGAUUUGAGCGGAGUGAGATT against KCTD7 | inactive: 0.484
64 | GCUCCGGUAUGAAAUCAAATT against TIMP4 | inactive: -0.112
65 | GGAAAUUACGGCUACAGAATT against AP1S3 | inactive: 0.153
66 | GCCUACACGUUGGAUGAUATT against MAOB | inactive: 0

Row | Sequence | median seed-adjusted z-score
67 | CAGUGACUAUGGAUGUGCATT against NAT10 | inactive: 0
68 | GCGGAAAGGUGGACUUUGATT against CABP2 | inactive: 0.323
69 | GGACUUACACGUUUACAGATT against ADAM8 | inactive: -0.407
70 | GUAUGAGUGUAAUAUCUGUTT against ZBTB43 | inactive: 0.143
71 | GCUAUGUACUUGCUGUGGATT against ALG1 | inactive: 0
72 | AGUACAUGCGAGACCCUGATT against LSM7 | inactive: -0.45
73 | CAAUGUGCCUUACAUCUAUTT against TXNRD1 | inactive: 0.485
74 | GGCACGUCCUGUUACACCATT against LMO4 | inactive: -0.067
75 | GCCUUCUGAUGGUAGAUCUTT against RANBP17 | inactive: -0.123
76 | GAAACAGUGCUAGAUAAAATT against SULT1C2 | inactive: 0
77 | AGAUGAUCCGCAAUCCCAATT against EPHB2 | inactive: -0.325
78 | GCUGAUGACUGUCGUUAUATT against TBX3 | inactive: 0
79 | CUCUAAUGUUAAUCCGAGATT against MED14 | active: -3.22
80 | GGCUGCUCAAGUUCCCAGATT against MVK | inactive: -0.192
81 | GCUGACCGCUGGGUGAUAATT against TMPRSS6 | active: 1.29
82 | GAUUUGCUCUUAAGUGAAATT against PCDHB11 | inactive: -0.257
83 | GGACGGUCCGCUCACAAAATT against NLGN2 | inactive: 0.204
84 | CGAACUGCUUUAUGACCUATT against KIF20A | inactive: 0.906
85 | AGAUCAGCAAGAACCCGAATT against CDC14B | inactive: 0.325
86 | CCCGUUACCUUUGCCGAAATT against TRIM29 | inactive: 0.331
87 | AGAACAUUAUUGGCCGGGATT against FOXB2 | inactive: -0.0149
88 | GGCUCAACACUUCAUGACATT against CD96 | inactive: 0.461

Row | Sequence | median seed-adjusted z-score
89 | CAGCUGAAAUUUGCCCGCATT against ZNF197 | inactive: -0.219
90 | CCCAUUUGAUCGACAAGUATT against TRIM23 | inactive: -0.318
91 | GGCAGUCCCUAUUAGCUAATT against CGREF1 | inactive: 0.0743
92 | CAGUGCAACCUGGAGAGAATT against NRBP2 | inactive: 0.093
93 | GCUUAGCAACCUGGAGUUUTT against HAGHL | inactive: -0.334
94 | CGAUGACAACGGAUACCCATT against ITGA2B | inactive: 0.172
95 | CCAAGAAAAAGAGAUCGUATT against ZNF643 | inactive: -0.0134
96 | GCAUACAAGUGACAAUGGUTT against RNF128 | inactive: -0.377
97 | CGAGCCCAAGGAACAUGAATT against NKX2-3 | inactive: -0.2
98 | AGUACAACCUGGUGACGCATT against ZNF710 | inactive: 0
99 | AUACUAAAGGUAAAUCAUATT against ZNF705A | inactive: 0.669
100 | CCAGUUCGACCUGAACAAATT against ZBTB41 | inactive: 0.173
101 | CUAUUGGUGUGGUGCUGAATT against FCRL4 | inactive: -0.39
102 | CCAGCUUCUUUGACUCAGATT against DVL3 | inactive: -0.57
103 | CCAAGGAGGUGCACUAUAATT against FHL1 | inactive: 0.574
104 | GGUGUACGAUUUGACCAAATT against CYB5A | inactive: 0.226
105 | CGACUGCCUUGUCUAUGCATT against ZNRF2 | inactive: 0
106 | CUUGGACACUGAAAACGCATT against ITGAM | active: -1.56
107 | AGACUAGGGCAGUUCCUUATT against KCNK5 | inactive: 0
108 | CUACUAUUCAGAGACAACATT against GPR3 | inactive: 0
